The other results are listed elsewhere or left out.
Biological target: OsWRKY34 (Oryza sativa, UniProt Q0JBA9 1-250)
Assay: protein-binding microarray (RPBM); PBS, 2% BSA, 51.3 ng/ul salmon testes DNA, 50 uM zinc acetate, 200 nM TF, 25 C, 1 h; high values mean tight binding
Conditions: protein: recombinant; tags: N-terminal polyhistidine and DsRed monomer fusion (pET32a); label: CyDye5-dUTP incorporated in the synthesized complementary strand; 3' TTTTT single-stranded linker to array surface; dsDNA, one strand shown
How it was run: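 Per-feature fluorescence intensity (arbitrary units), read on an Axon 4000B scanner, is the binding signal. Transcription factors carrying an N-terminal polyhistidine tag and DsRed fusion were expressed in E. coli BL21-CodonPlus and purified on Ni–NTA. A custom Agilent array, made double-stranded by primer extension with Cy5-dUTP and blocked with 2% BSA, was incubated with 200 nM protein in PBS, 2% BSA, salmon testes DNA and 50 µM zinc acetate at 25 °C for 1 h and then washed.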

Protein sequences, listed by entry. Tags and fused reporters are not part of them.
UniProt Q0JBA9, entry or part of it: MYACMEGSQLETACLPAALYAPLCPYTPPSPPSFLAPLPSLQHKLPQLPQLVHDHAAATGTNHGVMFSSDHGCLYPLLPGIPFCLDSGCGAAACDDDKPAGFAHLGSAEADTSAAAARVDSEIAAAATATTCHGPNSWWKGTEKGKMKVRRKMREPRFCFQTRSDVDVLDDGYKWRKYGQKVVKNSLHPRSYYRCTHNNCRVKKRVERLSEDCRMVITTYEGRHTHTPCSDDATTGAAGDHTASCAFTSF

Row | Sequence | binding signal
1 | CCTCTCTTTCTCTCACTCTCTGTGACTCTTGTCTTTTTGTCGGAGTCACCTAGTGCAG | 8390 fluorescence intensity (a.u.)
2 | GCTTGAGCTGCTTGTTCTTCTTCTACCTCCTGCACTCGCGCGGAGTCACCTAGTGCAG | 8340 fluorescence intensity (a.u.)
3 | CTCTCTCTCTCTCTCTCTATAGCTTTGCTTGATCATATCACGGAGTCACCTAGTGCAG | 9810 fluorescence intensity (a.u.)
4 | TCGTGTCTTCTATTTTGCTCAATTTTGAAAATTAACGTTCCGGAGTCACCTAGTGCAG | 9220 fluorescence intensity (a.u.)
5 | TTTCTCCATACTCCATACATTACCCTGAATATTATTTTATCGGAGTCACCTAGTGCAG | 9800 fluorescence intensity (a.u.)
6 | TCAGCTGCCACAAGCCTCAATTGTGCCACTTCATTCATTGCGGAGTCACCTAGTGCAG | 8270 fluorescence intensity (a.u.)
7 | TGTAGCTCAATTCTTCTGCCAGTCTTCCGAAGCCCAACATCGGAGTCACCTAGTGCAG | 8030 fluorescence intensity (a.u.)
8 | CCTCCTCGACGTCGCCTCCTCCCTCTTCGTCGACACCTCACGGAGTCACCTAGTGCAG | 8690 fluorescence intensity (a.u.)
9 | CTTTAAACAGTTTGAGTGAATTTAGGGGTACATATTTCTGCGGAGTCACCTAGTGCAG | 8850 fluorescence intensity (a.u.)
10 | GGACTCTGTTTTTTCTTTTTCTCCGATTAATGTGAGAATTCGGAGTCACCTAGTGCAG | 8120 fluorescence intensity (a.u.)
11 | GCCGCCACCACTTAGCCTCGCCGCCAGCTGCCTCCCCGCTCGGAGTCACCTAGTGCAG | 11900 fluorescence intensity (a.u.)
12 | GAATTTGTTTCCACGACCTCTATTTTACTGAAATAACATGCGGAGTCACCTAGTGCAG | 9590 fluorescence intensity (a.u.)
13 | TTTCTCATTTCATGTGTGGCTATTGGCTAATTAGCCATTTCGGAGTCACCTAGTGCAG | 11500 fluorescence intensity (a.u.)
14 | AGACTTTCCCAAGCCAGTTAGTTGACCATGACTTTTTCTCCGGAGTCACCTAGTGCAG | 11100 fluorescence intensity (a.u.)
15 | GCCTCCACCGCGGCGCGCGCCCACACACACACACACACTCCGGAGTCACCTAGTGCAG | 10700 fluorescence intensity (a.u.)
16 | AGTGTTTGGTTTGAGGAGGACTAGTGGGGTGGTTTTTTGACGGAGTCACCTAGTGCAG | 13900 fluorescence intensity (a.u.)
17 | CGATCCGACGTCCTCTGCTCCTGCCTCCGCTCCGCTGCTTCGGAGTCACCTAGTGCAG | 10100 fluorescence intensity (a.u.)
18 | ACAGCCTGTATTAGTTTTTCTTACATTTTTTCAGCTGATACGGAGTCACCTAGTGCAG | 8180 fluorescence intensity (a.u.)
19 | GGGGTTTGCTATTCTGGCTCTCTATTAAGCTCATAAAAAACGGAGTCACCTAGTGCAG | 23500 fluorescence intensity (a.u.)
20 | ATCCCTCATCACCGTCGTCTACCTCCCACCCTCTCTCTCTCGGAGTCACCTAGTGCAG | 8450 fluorescence intensity (a.u.)
21 | CGCCCATGCGAGGACGCAGCCATCCATCCATCCACCCAGCCGGAGTCACCTAGTGCAG | 8720 fluorescence intensity (a.u.)

Row | Sequence | binding signal
22 | GTATTGCTGGGGTCGATGTCTTCATTGTGAAGTGCTGATACGGAGTCACCTAGTGCAG | 13100 fluorescence intensity (a.u.)
23 | AACGCGCACACATTACGCTATAAATATACACACATCCTACCGGAGTCACCTAGTGCAG | 9070 fluorescence intensity (a.u.)
24 | CACCGTGTCGCTCTCTCTCGTCGTCTCCGCCTCCGGCTTCCGGAGTCACCTAGTGCAG | 19600 fluorescence intensity (a.u.)
25 | GCACTTTCTCATAATGAACTATAGAGACGTGGAGTTGGGTCGGAGTCACCTAGTGCAG | 8460 fluorescence intensity (a.u.)
26 | GGAGGCGGTGGTGGTATTCGGAGGCGAGCAGCTTGAGGCGCGGAGTCACCTAGTGCAG | 9370 fluorescence intensity (a.u.)
27 | ATAATGCTCTTGCCTCCTCGCCAACCAAGCCGCACACACCCGGAGTCACCTAGTGCAG | 8270 fluorescence intensity (a.u.)
28 | AGTAGTCTCCGTCTTCGTCCTCTTCCTTCTTGTTTAATAACGGAGTCACCTAGTGCAG | 8930 fluorescence intensity (a.u.)
29 | ATTTACGTCATCATTTCGTGTATCATTTCTCTCGATGATTCGGAGTCACCTAGTGCAG | 9820 fluorescence intensity (a.u.)
30 | TGCTTAACTTCTATGATTTACCATCGCCGTCCAGTTAGTCCGGAGTCACCTAGTGCAG | 9830 fluorescence intensity (a.u.)
31 | CTCAACCCGTCGCTCACCATCGCCTTCGCCGCGCTCCGCCCGGAGTCACCTAGTGCAG | 10100 fluorescence intensity (a.u.)
32 | ATCTCACCACCCAACCCGTTCGGATTAGATAGCCCGCTTCCGGAGTCACCTAGTGCAG | 8280 fluorescence intensity (a.u.)
33 | ATATAATTTCTTACTTTCTCAGATGTGTCCTTATTCATGTCGGAGTCACCTAGTGCAG | 9380 fluorescence intensity (a.u.)
34 | TGCTCCAACTGCCAAGTACTAGTCGCTGCGGTCACTCTGTCGGAGTCACCTAGTGCAG | 8240 fluorescence intensity (a.u.)
35 | TCTCTCACATAGGTTATTGGATTTCGTGTTGTAGCCGGCTCGGAGTCACCTAGTGCAG | 9940 fluorescence intensity (a.u.)
36 | GCAGTCGGTTCGCGTTTGTTTTTTTTCTTTCTTTCTTTTTCGGAGTCACCTAGTGCAG | 18400 fluorescence intensity (a.u.)
37 | CTAGCCGTGTCCGCCTCTGCCACGCCACCACGACACGAGTCGGAGTCACCTAGTGCAG | 8200 fluorescence intensity (a.u.)
38 | CTGTACAATTTTTTGTTTCCGGTAGACCATCAGCACTTCACGGAGTCACCTAGTGCAG | 8880 fluorescence intensity (a.u.)
39 | ATATATAAAGTTTTTAGACCGTTCTGTTTAGGGGCCGGGGCGGAGTCACCTAGTGCAG | 10800 fluorescence intensity (a.u.)
40 | GTATTTCTATATGGACTCTGTCTTTTCTTTTCTCCGATTACGGAGTCACCTAGTGCAG | 9860 fluorescence intensity (a.u.)
41 | CCCCGCCGCCGCCGCCGCCGCCTCGCCTCCGTTGCAACCGCGGAGTCACCTAGTGCAG | 8450 fluorescence intensity (a.u.)
42 | ATATAAGATGACAAAGTAGTAGTTGTATTCTCAATTTATACGGAGTCACCTAGTGCAG | 10700 fluorescence intensity (a.u.)

2 entries picked at random from those above, as already listed:
Row | Sequence | binding signal
30 | TGCTTAACTTCTATGATTTACCATCGCCGTCCAGTTAGTCCGGAGTCACCTAGTGCAG | 9830 fluorescence intensity (a.u.)
35 | TCTCTCACATAGGTTATTGGATTTCGTGTTGTAGCCGGCTCGGAGTCACCTAGTGCAG | 9940 fluorescence intensity (a.u.)

From PMC7819943, “Rice protein-binding microarrays: a tool to detect cis-acting elements near promoter regions in rice”
